Data as given in PubChem BioAssay AID1259308 (NCATS, 2017).
Assay: 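Candidate targets for better recombinant protein yield in mammalian cells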 (primary screen). Cells: human HEK293 embryonic kidney cells stably expressing firefly luciferase (HEK-CMV-Luc2-Hygro). Knock-down reagent: single siRNA against human genes, 0.8 pmol siRNA per well. Duration: 72 h. Measured: 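Reporter luminescence and viable-cell signal on separate replicate plates, given as percent of non-targeting control and median/MAD z-scores, plus per-cell luciferase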. Reading the numbers: total luciferase, z-score and total luciferase, % of control: higher = more reporter protein produced. Rule for the call: 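Active when the median/MAD z-score for overall luciferase is greater than 3; a gene was taken forward for validation with new siRNAs if at least two of its three siRNAs passed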. Meaning of the calls: active = raised luciferase; inactive = no rise.
The deposit covers about 59,000 reagents; below is an unselected part. Over the whole deposit, about 1,510 (2.6%) got an active call. 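Calls use total luciferase alone and ignore viability, so some active siRNAs may act by altering cell number.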 Further read-outs or replicates are left out here.

With knock-down of PIANP (GeneID 196500) [SID160732642], the record shows total luciferase, z-score -0.122; total luciferase, % of control 79.5; inactive.
After knock-down of PIANP (GeneID 196500) [SID160760638] the results were total luciferase, z-score -1.39; total luciferase, % of control 54.2; inactive.
Depletion of PIANP (GeneID 196500) [SID160760639] came out at: total luciferase, z-score 0.356; total luciferase, % of control 89; inactive.
LINC00632 (GeneID 286411) [SID160763847] scored total luciferase, z-score 4.56; total luciferase, % of control 173; active.
With knock-down of LINC00632 (GeneID 286411) [SID160763848] the results were total luciferase, z-score 1.48; total luciferase, % of control 111; inactive.
Silencing of LINC00632 (GeneID 286411) [SID160763849] gave: total luciferase, z-score 1.36; total luciferase, % of control 109; inactive.
For LDLRAD1 (GeneID 388633) [SID160765939] the deposit lists total luciferase, z-score 0.152; total luciferase, % of control 84.9; inactive.
Depletion of LDLRAD1 (GeneID 388633) [SID160765940] resulted in: total luciferase, z-score 0.796; total luciferase, % of control 97.7; inactive.
LDLRAD1 (GeneID 388633) [SID160765941] scored total luciferase, z-score 0.406; total luciferase, % of control 90; inactive.
Depletion of ABCC6 (GeneID 368) [SID160723661] resulted in: total luciferase, z-score 0.58; total luciferase, % of control 93.4; inactive.
ABCC6 (GeneID 368) [SID160727813] scored total luciferase, z-score 0.245; total luciferase, % of control 86.8; inactive.
ABCC6 (GeneID 368) [SID160727814] showed total luciferase, z-score 1.73; total luciferase, % of control 116; inactive.
With knock-down of HBB (GeneID 3043) [SID160774858], the record shows total luciferase, z-score -2.25; total luciferase, % of control 37.2; inactive.
HBB (GeneID 3043) [SID160774859] scored total luciferase, z-score -0.855; total luciferase, % of control 64.9; inactive.
Depletion of HBB (GeneID 3043) [SID160774860] came out at: total luciferase, z-score -0.839; total luciferase, % of control 65.2; inactive.
With knock-down of KCND2 (GeneID 3751) [SID160776146] the results were total luciferase, z-score 0.825; total luciferase, % of control 98.3; inactive.
For KCND2 (GeneID 3751) [SID160776147] the deposit lists total luciferase, z-score 1.39; total luciferase, % of control 109; inactive.
Silencing of KCND2 (GeneID 3751) [SID160776148] resulted in: total luciferase, z-score 0.384; total luciferase, % of control 89.5; inactive.
After knock-down of EHBP1L1 (GeneID 254102) [SID160762149], the screen gave total luciferase, z-score -0.458; total luciferase, % of control 72.8; inactive.
For EHBP1L1 (GeneID 254102) [SID160762150] the deposit lists total luciferase, z-score 3.88; total luciferase, % of control 159; active.
Against EHBP1L1 (GeneID 254102) [SID160762151] the deposit lists total luciferase, z-score 0.642; total luciferase, % of control 94.7; inactive.
Knock-down of LMF1 (GeneID 64788) [SID160747991] came out at: total luciferase, z-score 0.518; total luciferase, % of control 92.2; inactive.
LMF1 (GeneID 64788) [SID160747992] gave total luciferase, z-score -0.53; total luciferase, % of control 71.3; inactive.
LMF1 (GeneID 64788) [SID160747993] scored total luciferase, z-score -2.77; total luciferase, % of control 26.8; inactive.
Depletion of PACS2 (GeneID 23241) [SID160735807] gave: total luciferase, z-score 1.35; total luciferase, % of control 109; inactive.
Depletion of PACS2 (GeneID 23241) [SID160735809] came out at: total luciferase, z-score 2.77; total luciferase, % of control 137; inactive.
With knock-down of PACS2 (GeneID 23241) [SID160735810], the record shows total luciferase, z-score 0.949; total luciferase, % of control 101; inactive.
Against LRRC36 (GeneID 55282) [SID160733597], the values are total luciferase, z-score 1.52; total luciferase, % of control 112; inactive.
Silencing of LRRC36 (GeneID 55282) [SID160743430] gave: total luciferase, z-score -1.13; total luciferase, % of control 59.4; inactive.
Knock-down of LRRC36 (GeneID 55282) [SID160743431] gave: total luciferase, z-score -1.05; total luciferase, % of control 60.9; inactive.
TMEM177 (GeneID 80775) [SID160750557] scored total luciferase, z-score -0.34; total luciferase, % of control 75.1; inactive.
Against TMEM177 (GeneID 80775) [SID160750558] the deposit lists total luciferase, z-score 1.42; total luciferase, % of control 110; inactive.
After knock-down of TMEM177 (GeneID 80775) [SID160750559] the results were total luciferase, z-score -0.335; total luciferase, % of control 75.2; inactive.
Silencing of TK1 (GeneID 7083) [SID160718093] resulted in: total luciferase, z-score -0.509; total luciferase, % of control 71.8; inactive.
Depletion of TK1 (GeneID 7083) [SID160718094] gave: total luciferase, z-score 1.3; total luciferase, % of control 108; inactive.
Knock-down of TK1 (GeneID 7083) [SID160718096] came out at: total luciferase, z-score 1.42; total luciferase, % of control 110; inactive.
STK32C (GeneID 282974) [SID160762746] scored total luciferase, z-score 1.25; total luciferase, % of control 107; inactive.
Against STK32C (GeneID 282974) [SID160762747] the deposit lists total luciferase, z-score 0.399; total luciferase, % of control 89.8; inactive.
For STK32C (GeneID 282974) [SID160762748], the entry reads total luciferase, z-score 1.81; total luciferase, % of control 118; inactive.
Knock-down of TADA3 (GeneID 10474) [SID160728514] came out at: total luciferase, z-score -1.03; total luciferase, % of control 61.5; inactive.
Depletion of TADA3 (GeneID 10474) [SID160728515] came out at: total luciferase, z-score -0.789; total luciferase, % of control 66.2; inactive.
For TADA3 (GeneID 10474) [SID160728517], the values are total luciferase, z-score -1.4; total luciferase, % of control 54.1; inactive.

Already shown: entries from further up.
ABCC6 (GeneID 368) [SID160727813] — total luciferase, z-score: 0.245; total luciferase, % of control: 86.8; outcome: inactive
ABCC6 (GeneID 368) [SID160727814] — total luciferase, z-score: 1.73; total luciferase, % of control: 116; outcome: inactive
HBB (GeneID 3043) [SID160774858] — total luciferase, z-score: -2.25; total luciferase, % of control: 37.2; outcome: inactive
